Results from US8293489B2, “Methods for detection of biological substances” (priority 2007, dated 2012).

Tests used:
Set-up in all cases: species or system human
[1] = 96 plate colorimetric ELISA comparison of biological substances in various bodily fluids
endostatin = assay: Endostatin in plasma, urine, saliva and nasal mucus
EPO = EPO in plasma, urine, saliva and nasal mucus
GM-CSF = GM-CSF in plasma, urine, saliva and nasal mucus
HGF = HGF in plasma, urine, saliva and nasal mucus
IGF 1 = IGF 1 in saliva and nasal mucus; settings: (26) subjects
TNFα = TNFα in saliva and nasal mucus; settings: 75 subjects
TRAIL = TRAIL in saliva and nasal mucus in normal subjects and patients with smell loss
[2] = NASAL MUCUS, PATIENTS (10) with smell loss
[3] = NASAL MUCUS, PATIENTS (65) with Hyposmia
[4] = SALIVA, PATIENTS (10) with smell loss
[5] = SALIVA, PATIENTS (65) with Hyposmia

| Substance | concentration in NASAL MUCUS [1] | concentration in PLASMA [1] | concentration in SALIVA [1] | concentration in URINE [1] | other results |
| --- | --- | --- | --- | --- | --- |
| Agout Related Protein (SSRRCVRLHESCLGQQVPCCDPCATCYCRFFNAFCYCRKLGTAMNPCSRT; UniProt O00253 83-132, looked up) | 4.0 ± 0.9 pg/mL | 38 ± 3 pg/mL | 6.4 ± 1.1 pg/mL | 147 ± 20 pg/mL | – |
| ENDOSTATIN | – | – | – | – | ENDOSTATIN (endostatin; NASAL MUCUS): 6.6 ± 1.3^a μg/ml; ENDOSTATIN/PROTEIN (endostatin; NASAL MUCUS): 2.0 ± 0.43^a; ENDOSTATIN/PROTEIN (endostatin; PLASMA): 15 ± 1; ENDOSTATIN (endostatin; PLASMA, (15) subjects): 94 ± 10 µg/mL; ENDOSTATIN (endostatin; SALIVA): 1.3 ± 0.3^a μg/ml; ENDOSTATIN/PROTEIN (endostatin; SALIVA): 0.59 ± 0.04^a; ENDOSTATIN (endostatin; URINE): 0.5 ± 0.04^a μg/ml |
| EPO | – | – | – | – | ERYTHROPOETIN (EPO; NASAL MUCUS): 15 ± 5 μIU/ml; ERYTHROPOETIN/PROTEIN (EPO; NASAL MUCUS): 9 ± 2^b; ERYTHROPOETIN/PROTEIN (EPO; PLASMA): 2 ± 0.3; ERYTHROPOETIN (EPO; PLASMA, (27) subjects): 13 ± 2 μIU/ml; ERYTHROPOETIN (EPO; SALIVA): 0 μIU/ml; ERYTHROPOETIN/PROTEIN (EPO; SALIVA): 0; ERYTHROPOETIN (EPO; URINE): 0 μIU/ml; ERYTHROPOETIN/PROTEIN (EPO; URINE): 0 |
| Endothelial Nitric Oxide (ENO) | 0 pg/mL | 0 pg/mL | 0 pg/mL | 0 pg/mL | – |
| Epidermal Growth Factor (EGF) | 7730 ± 103 pg/mL | 52 ± 7 pg/mL | 1332 ± 258 pg/mL | 81157 ± 11254 pg/mL | – |
| Erythroporetin | 7.0 ± 3.7 pg/mL | 13.2 ± 2.0 pg/mL | 0 pg/mL | 0 pg/mL | – |
| FAS Ligand | 4.05 ± 1.9 pg/mL | 63.7 ± 8.1 pg/mL | 0 pg/mL | 0.73 ± 1.6 pg/mL | – |
| Fibroblastic Growth Factor, basic (FGF basic) | 2.81 ± 1.3 pg/mL | 0 pg/mL | 0 pg/mL | 0 pg/mL | – |
| GM-CSF | – | – | – | – | GM-CSF (GM-CSF; NASAL MUCUS): 2.55 ± 0.8 µg/dL; GM-CSF (GM-CSF; PLASMA, (16) subjects): 0.42 ± 0.31 µg/dL; GM-CSF (GM-CSF; SALIVA): 0 µg/dL; GM-CSF (GM-CSF; URINE): 0 µg/dL |
| HGF | – | – | – | – | HGF (HGF; NASAL MUCUS): 2015 ± 431^a μg/ml; HGF/PROTEIN (HGF; NASAL MUCUS): 924 ± 227^a; HGF/PROTEIN (HGF; PLASMA): 100 ± 13; HGF (HGF; PLASMA, (17) subjects): 709 ± 91 µg/mL; HGF (HGF; SALIVA): 0 µg/mL; HGF/PROTEIN (HGF; SALIVA): 0; HGF (HGF; URINE): 623 ± 126 µg/mL |
| IGF 1 | – | – | – | – | IGF 1 (IGF 1; NASAL MUCUS): 13.7 ± 0.4^b μg/ml; IGF 1/PROTEIN (IGF 1; NASAL MUCUS): 8.9 ± 1.0^a; IGF 1 (IGF 1; SALIVA): 11.4 ± 0.5 µg/mL; IGF 1/PROTEIN (IGF 1; SALIVA): 4.6 ± 0.4 |
| Insulin-like Growth Factor (IGF-1) | 4.2 ± 0.6 pg/mL | – | 1.3 ± 0.3 pg/mL | – | – |
| Interferon ω (IFN ω) | 44 ± 11 pg/mL | 38 ± 9 pg/mL | 0 pg/mL | 33 ± 15 pg/mL | – |
| Interleukin 6 (IL-6) | 21.60 ± 12.80 pg/mL | 1.25 ± 0.18 pg/mL | 0.79 ± 0.11 pg/mL | 1.52 ± 0.43 pg/mL | – |
| Interleukin 15 (IL-15) | 21.6 ± 8.9 pg/mL | 0.67 ± 0.12 pg/mL | 0.56 ± 0.21 pg/mL | 0.59 ± 0.36 pg/mL | – |
| Interleukin 17 (IL-17) | 2.06 ± 1.18 pg/mL | 0 pg/mL | 1.80 ± 0.7 pg/mL | 3.49 ± 1.44 pg/mL | – |
| Interleukin 18 (IL-18) | 270 ± 85 pg/mL | 334 ± 52 pg/mL | 106 ± 22 pg/mL | 0 pg/mL | – |
| Leptin | 272 ± 70 pg/mL | 8788 ± 903 pg/mL | 7.1 ± 1.0 pg/mL | 0 pg/mL | – |
| Leukemia Inhibitory Factor (LIF) | 5.2 ± 3.8 pg/mL | 0 pg/mL | 0 pg/mL | 0 pg/mL | – |
| Matrix Metalliproteinase 1 (MMP-1) | 300 ± 100 pg/mL | 800 ± 200 pg/mL | 0 pg/mL | 0 pg/mL | – |
| Platelet Derived Growth Factor-AA (PDGF) | 420 ± 65 pg/mL | 560 ± 166 pg/mL | 673 ± 188 pg/mL | 0 pg/mL | – |
| Receptor for Advanced Glycotion End Product (RAGE) | 0 pg/mL | 935 ± 89 pg/mL | 0 pg/mL | 0 pg/mL | – |
| Stem Cell Factor (SCF) | 33.3 ± 4.6 pg/mL | 846 ± 45 pg/mL | – | 46.4 ± 6.2 pg/mL | – |
| Substance P | 270 ± 74 pg/mL | 250 ± 31 pg/mL | 137 ± 47 pg/mL | 205 ± 27 pg/mL | – |
| TNFα | – | – | – | – | TNFα (TNFα; NASAL MUCUS): 12.8 ± 1.6^a μg/ml; TNFα/PROTEIN (TNFα; NASAL MUCUS): 5.5 ± 1.3^a; TNFα (TNFα; SALIVA): 0.43 ± 0.03 µg/mL; TNFα/PROTEIN (TNFα; SALIVA): 0.15 ± 0.01 |
| TRAIL | 4681 ± 464 pg/mL | 69 ± 17 pg/mL | 685 ± 15 pg/mL | 69 ± 12 pg/mL | TRAIL (TRAIL; NASAL MUCUS, NORMALS (17)): 1639 ± 89 µg/mL; TRAIL/PROTEIN (TRAIL; NASAL MUCUS, NORMALS (17)): 770 ± 35; TRAIL (TRAIL; NASAL MUCUS, NORMALS (28)): 1990 ± 119 µg/mL; TRAIL/PROTEIN (TRAIL; NASAL MUCUS, NORMALS (28)): 7.56 ± 28; TRAIL (TRAIL; [2]): 2584 ± 430 µg/mL; TRAIL/PROTEIN (TRAIL; [2]): 4753 ± 1400; TRAIL (TRAIL; [3]): 4121 ± 54^a μg/ml; TRAIL/PROTEIN (TRAIL; [3]): 3095 ± 591^a; TRAIL (TRAIL; SALIVA, NORMALS (17)): 336 ± 48 µg/mL; TRAIL/PROTEIN (TRAIL; SALIVA, NORMALS (17)): 122 ± 14; TRAIL (TRAIL; SALIVA, NORMALS (28)): 123 ± 6 ^ μg/ml; TRAIL/FLOW RATE (TRAIL; SALIVA, NORMALS (28)): 343 ± 13^; TRAIL (TRAIL; [4]): 353 ± 31^ μg/ml; TRAIL/PROTEIN (TRAIL; [4]): 141 ± 20; TRAIL (TRAIL; [5]): 330 ± 25^a μg/ml; TRAIL/FLOW RATE (TRAIL; [5]): 582 ± 55^a |
| Tissue Inhibitor of Metalloproteinase 1 (TIMP-1) | 4.326e+06 ± 553000 pg/mL | 437000 ± 114000 pg/mL | 215000 ± 62000 pg/mL | 0 pg/mL | – |
| Tumor Growth Factor alpha (TFG-alpha) | 46 ± 8 pg/mL | 0 pg/mL | 0 pg/mL | 0 pg/mL | – |
| Vascular Endothelial Growth Factor - Receptor 2 (VEGF-R2) | 350 ± 149 pg/mL | 5074 ± 258 pg/mL | 99 ± 25 pg/mL | 223 ± 73 pg/mL | – |
| inducible Nitric Oxide Synthase (iNOS) | 19.9 ± 8.0 U/ml | 9.5 ± 3.1 U/ml | 11.9 ± 3.6 U/ml | 15.8 ± 7.6 U/ml | – |

Marks after values point to notes of the source that are not given here.
